Measurements reported in PubChem BioAssay AID504793 (Drosophila RNAi Screening Center, 2011)
In all, the deposit lists about 23,000 reagents; below is an unselected part of those with a known target gene and a result. Over the whole deposit, 62 (0.27%) got an active call. 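Calls come from follow-up tests whose scores are not deposited, so confirmed genes may have low counts here; counts are not normalised per plate.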 Raw values are not corrected between plates. The numbers tell different reagents against one gene apart. Names joined by + are all predicted targets of the reagent.

Screen: 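Knock-downs allowing continued mitosis even though DNA is damaged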 (primary screen)
Cells: Drosophila S2R+ cells
Reagents: long dsRNA against Drosophila genes, about 0.25 µg dsRNA per well
Duration: 4 days of dsRNA, then 4 hours of drug before read-out
Challenge: doxorubicin 0.5 µM for 4 hours to cause double-strand breaks, in cells also given a low, harmless dose of dsRNA against nbs to sensitise the assay
Detection: 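Mitotic index as the number of phospho-histone H3-positive cells in each well following doxorubicin, given as raw counts without normalisation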
Direction: mitotic cells: higher = more cells in mitosis, weaker G2 arrest
Active means: 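Genes are called active only when high mitotic counts were reproduced with independent dsRNAs and mitosis was checked for delay without damage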
Meaning of the calls: active = confirmed in follow-up tests; inactive = not confirmed

Cpr67Fa1 + Cpr67Fa2
- mitotic cells, replicate 1: 2
- call: inactive

CG31606
- mitotic cells, replicate 1: 10
- call: inactive

da
- mitotic cells, replicate 1: 3
- call: inactive

CG14835
- mitotic cells, replicate 1: 8
- call: inactive

Pcif1 #1
- mitotic cells, replicate 1: 7
- call: inactive

Pcif1 #2
- mitotic cells, replicate 1: 6
- call: inactive

Neb-cGP
- mitotic cells, replicate 1: 24
- call: inactive

Mitf #1
- mitotic cells, replicate 1: 10
- call: inactive

Mitf #2
- mitotic cells, replicate 1: 18
- call: inactive

CG15199
- mitotic cells, replicate 1: 7
- call: inactive

Rlip
- mitotic cells, replicate 1: 4
- call: inactive

Pex1
- mitotic cells, replicate 1: 7
- call: inactive

CG32152
- mitotic cells, replicate 1: 14
- call: inactive

eater #1
- mitotic cells, replicate 1: 10
- call: inactive

eater #2
- mitotic cells, replicate 1: 5
- call: inactive

eater #3
- mitotic cells, replicate 1: 8
- call: inactive

Sorted by “mitotic cells, replicate 1” (lowest first): 2 of the entries above
eater #2
- mitotic cells, replicate 1: 5
- call: inactive

eater #3
- mitotic cells, replicate 1: 8
- call: inactive
